Measurements reported in US20250127896A1, “CHIMERIC TIM4 RECEPTORS AND USES THEREOF” (CERO THERAPEUTICS HOLDINGS, INC., priority 2021, published 2025).

Test system: transduced T cells
Experiment: CER T cell product characterisation by flow cytometry (Tim-4, CD45RA, CCR7, CD4/CD8)
Format: cell-based
Settings: day 6 following transduction

B1: CER 1183: wildtype human Tim4, SEQ ID NO:20; control molecule lacking intracellular T-cell signaling domains (protein)
chain: MSKEPLILWLMIEFWWLYLTPVTSETVVTEVLGHRVTLPCLYSSWSHNSNSMCWGKDQCPYSGCKEALIRTDGMRVTSRKSAKYRLQGTIPRGDVSLTILNPSESDSGVYCCRIEVPGWFNDVKINVRLNLQRASTTTHRTATTTTRRTTTTSPTTTRQMTTTPAALPTTVVTTPDLTTGTPLQMTTIAVFTTANTCLSLTPSTLPEEATGLLTPEPSKEGPILTAESETVLPSDSWSSVESTSADTVLLTSKESKVWDLPSTSHVSMWKTSDSVSSPQPGASDTAVPEQNKTTKTGQMDGIPMSMKNEMPISQLLMIIAPSLGFVLFALFVAFLRGKLMETYCSQKHTRLDYIGDSKNVLNDVQHGREDEDGLFTL
- Tim4+, %: 69.4%
